Assay results published in paper PMC4066752.
Results are given in words; binding and its absence hold for the method and conditions named. For part of these data: Binding seen in cells or lysates may run through a third protein. Some entries that bind do so weakly or less than the wild type.

Amino acid sequences for entries named in this document (tags omitted).
UniProt P01106: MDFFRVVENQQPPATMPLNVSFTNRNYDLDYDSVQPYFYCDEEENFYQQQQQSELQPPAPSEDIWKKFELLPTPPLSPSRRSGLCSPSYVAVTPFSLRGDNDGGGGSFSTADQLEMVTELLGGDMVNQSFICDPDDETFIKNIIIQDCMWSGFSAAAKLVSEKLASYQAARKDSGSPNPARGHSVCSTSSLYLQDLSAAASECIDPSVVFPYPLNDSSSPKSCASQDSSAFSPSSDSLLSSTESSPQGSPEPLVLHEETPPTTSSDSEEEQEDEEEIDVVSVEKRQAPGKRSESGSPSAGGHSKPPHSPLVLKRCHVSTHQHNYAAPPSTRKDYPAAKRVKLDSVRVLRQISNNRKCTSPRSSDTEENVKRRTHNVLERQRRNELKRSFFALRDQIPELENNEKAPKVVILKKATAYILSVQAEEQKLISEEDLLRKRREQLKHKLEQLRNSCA
UniProt P61244: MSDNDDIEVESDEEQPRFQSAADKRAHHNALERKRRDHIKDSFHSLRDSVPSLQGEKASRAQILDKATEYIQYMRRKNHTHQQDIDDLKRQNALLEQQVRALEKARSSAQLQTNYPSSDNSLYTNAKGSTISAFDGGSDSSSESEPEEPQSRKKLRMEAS
UniProt P19338: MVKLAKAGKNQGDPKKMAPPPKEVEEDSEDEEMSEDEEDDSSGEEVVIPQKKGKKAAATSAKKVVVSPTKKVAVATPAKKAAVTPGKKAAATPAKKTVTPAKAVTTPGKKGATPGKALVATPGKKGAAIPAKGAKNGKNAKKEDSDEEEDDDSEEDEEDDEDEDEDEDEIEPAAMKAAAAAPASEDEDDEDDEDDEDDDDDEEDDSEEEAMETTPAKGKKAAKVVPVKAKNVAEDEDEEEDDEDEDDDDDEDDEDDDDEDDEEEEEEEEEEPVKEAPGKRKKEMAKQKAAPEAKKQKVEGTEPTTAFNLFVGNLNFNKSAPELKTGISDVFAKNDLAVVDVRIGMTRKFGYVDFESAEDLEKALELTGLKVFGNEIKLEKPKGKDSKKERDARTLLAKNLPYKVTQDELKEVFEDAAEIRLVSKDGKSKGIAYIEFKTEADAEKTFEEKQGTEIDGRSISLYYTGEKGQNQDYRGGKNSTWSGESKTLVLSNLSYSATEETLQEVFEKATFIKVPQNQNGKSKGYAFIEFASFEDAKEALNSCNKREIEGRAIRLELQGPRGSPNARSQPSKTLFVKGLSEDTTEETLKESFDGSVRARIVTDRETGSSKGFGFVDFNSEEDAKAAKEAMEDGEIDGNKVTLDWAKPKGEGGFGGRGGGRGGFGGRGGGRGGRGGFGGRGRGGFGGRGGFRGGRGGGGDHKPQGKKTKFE
UniProt Q9UBL3: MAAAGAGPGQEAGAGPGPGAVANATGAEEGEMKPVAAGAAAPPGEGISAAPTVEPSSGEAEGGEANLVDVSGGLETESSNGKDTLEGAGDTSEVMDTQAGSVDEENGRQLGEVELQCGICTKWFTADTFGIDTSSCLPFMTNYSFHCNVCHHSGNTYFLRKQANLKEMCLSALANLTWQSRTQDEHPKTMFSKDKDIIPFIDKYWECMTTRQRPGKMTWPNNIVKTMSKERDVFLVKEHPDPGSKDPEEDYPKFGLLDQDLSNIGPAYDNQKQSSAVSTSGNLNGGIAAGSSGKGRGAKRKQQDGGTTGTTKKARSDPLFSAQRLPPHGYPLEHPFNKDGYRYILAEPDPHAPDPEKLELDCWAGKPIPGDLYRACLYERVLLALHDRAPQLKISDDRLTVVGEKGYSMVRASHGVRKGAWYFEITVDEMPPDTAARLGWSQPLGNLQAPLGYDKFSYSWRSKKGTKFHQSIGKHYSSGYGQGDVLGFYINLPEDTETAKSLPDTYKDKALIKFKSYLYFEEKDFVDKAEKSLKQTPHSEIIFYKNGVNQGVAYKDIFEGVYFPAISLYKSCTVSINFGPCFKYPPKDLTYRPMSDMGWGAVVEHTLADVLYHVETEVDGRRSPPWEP

Legend:
[1] = target: MYC (tetracycline-regulated transgene in P493-6 B cells) (UniProt P01106); assay: re-ChIP (sequential chromatin immunoprecipitation); P493-6 B cells with or without MYC induction, 1% formaldehyde cross-linked, sheared chromatin; first IP ASH2L or MYC, release with 1% SDS and 10 mM DTT, second IP MYC, ASH2L, CBP/p300 or IgG; qPCR of CCND2, ODC and NCL promoter regions
[2] = target: MYC (human (endogenous in U2OS, Jurkat T, HEK293)) (UniProt P01106); assay: co-IP; endogenous proteins; whole-cell lysates in F-buffer (10 mM Tris-HCl pH 7.05, 50 mM NaCl, 1% Triton X-100) of U2OS, Jurkat T or HEK293 cells; IP with MYC- (mAb 4H3), MAX- or ASH2L-specific (mAb 4C5) antibodies, HA-tag antibodies as control; western blot
[3] = target: MAX (human (endogenous in Jurkat T, HEK293)) (UniProt P61244); assay: as above
[4] = target: nucleolin (human (endogenous in U2OS)) (UniProt P19338); assay: as above
[5] = target: MYC (human (endogenous in U2OS, Jurkat T, HEK293)) (UniProt P01106); assay: proximity ligation; in situ PLA (DuolinkII) in U2OS cells; mAb 4C5 for ASH2L and pAb N262 for MYC; one primary antibody alone as negative control
[6] = target: ASH2L (human (endogenous in U2OS, Jurkat T, HEK293, P493-6)) (UniProt Q9UBL3); assay: co-IP; endogenous proteins; whole-cell lysates in F-buffer (10 mM Tris-HCl pH 7.05, 50 mM NaCl, 1% Triton X-100) of U2OS, Jurkat T or HEK293 cells; IP with MYC- (mAb 4H3), MAX- or ASH2L-specific (mAb 4C5) antibodies, HA-tag antibodies as control; western blot

Measured: binding

ASH2L (from UniProt Q9UBL3 1-628)
not listed: [6]
binds: all other assays above

MYC (from UniProt P01106 1-454)
binds: [6]
